Taken from: PubChem BioAssay AID1224827 (NIAID, 2016)
Test: 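Retest primary hits on a TNF reporter with six siRNAs per gene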 (follow-up of hits). Cells: RAW264.7 G9 mouse macrophage reporter clone. Reagent: single siRNA against mouse genes, 100 nM siRNA. Timing: siRNA for 2 days, then LPS about 16 h. Challenge: bacterial lipopolysaccharide (LPS), 10 ng/ml, cells fixed after overnight (about 16 h) stimulation. Detection: 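TNF promoter reporter red fluorescence in nuclei, background subtracted, normalised per plate and to non-targeting control siRNA, as z-scores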. Scale: TNF reporter z-score, mean: higher = stronger Tnf promoter reporter signal. Rule for the call: 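Active siRNA: replicate-mean z-score of 2 or more, or -2 or less; no calls for control wells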.
In all, the deposit lists about 3,800 reagents; this is an unselected part. About 2,200 of all reagents (57%) count as active. 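Active means a strong reporter change in either direction; calls are per siRNA, not per gene; qiagen siRNAs gave weaker effects.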 Unmarked entries are inactive. Reagents against one gene are numbered here. Not all columns of the deposit are shown.

target,siRNA no.,"TNF reporter z-score, mean"
Htra3 (GeneID 78558),1,-1.82
Htra3 (GeneID 78558),2,-3.57 (active)
Htra3 (GeneID 78558),3,-4.84 (active)
Htra3 (GeneID 78558),4,2.38 (active)
Htra3 (GeneID 78558),5,-1.9
Htra3 (GeneID 78558),6,-3.06 (active)
Inpp5b (GeneID 16330),1,-3.4 (active)
Inpp5b (GeneID 16330),2,-3.72 (active)
Inpp5b (GeneID 16330),3,-4.31 (active)
Inpp5b (GeneID 16330),4,-0.727
Inpp5b (GeneID 16330),5,-2.49 (active)
Inpp5b (GeneID 16330),6,-2.35 (active)
Gatm (GeneID 67092),1,5.55 (active)
Gatm (GeneID 67092),2,4.6 (active)
Gatm (GeneID 67092),3,-4.54 (active)
Gatm (GeneID 67092),4,1.11
Gatm (GeneID 67092),5,0.838
Gatm (GeneID 67092),6,-0.32
Cacna2d1 (GeneID 12293),1,-0.752
Cacna2d1 (GeneID 12293),2,-3.42 (active)
Cacna2d1 (GeneID 12293),3,-4.68 (active)
Cacna2d1 (GeneID 12293),4,4.13 (active)
Cacna2d1 (GeneID 12293),5,2.65 (active)
Cacna2d1 (GeneID 12293),6,0.634
Tnfsf14 (GeneID 50930),1,1.4
Tnfsf14 (GeneID 50930),2,0.948
Tnfsf14 (GeneID 50930),3,-3.86 (active)
Tnfsf14 (GeneID 50930),4,-1.55
Tnfsf14 (GeneID 50930),5,-2.31 (active)
Tnfsf14 (GeneID 50930),6,-2.86 (active)
Rpf2 (GeneID 67239),1,-0.515
Rpf2 (GeneID 67239),2,-3.8 (active)
Rpf2 (GeneID 67239),3,-5.62 (active)
Rpf2 (GeneID 67239),4,1.94
Rpf2 (GeneID 67239),5,0.661
Rpf2 (GeneID 67239),6,-3.22 (active)
Spi1 (GeneID 20375),1,-0.244
Spi1 (GeneID 20375),2,-2.28 (active)
Spi1 (GeneID 20375),3,-3.34 (active)
Spi1 (GeneID 20375),4,-1.23
Spi1 (GeneID 20375),5,-2.38 (active)
Spi1 (GeneID 20375),6,-2.95 (active)
Sfpq (GeneID 71514),1,5.37 (active)
Sfpq (GeneID 71514),2,-2.78 (active)
Sfpq (GeneID 71514),3,-4.37 (active)
Sfpq (GeneID 71514),4,0.484
Sfpq (GeneID 71514),5,-1
Sfpq (GeneID 71514),6,-1.94
G6pd2 (GeneID 14380),1,-0.672
G6pd2 (GeneID 14380),2,-4.69 (active)
G6pd2 (GeneID 14380),3,-5.1 (active)
G6pd2 (GeneID 14380),4,9.06 (active)
G6pd2 (GeneID 14380),5,0.905
G6pd2 (GeneID 14380),6,-1.26
Or10v5 (GeneID 258938),1,2.72 (active)
Or10v5 (GeneID 258938),2,-3.38 (active)
Or10v5 (GeneID 258938),3,-4.81 (active)
Or10v5 (GeneID 258938),4,3.27 (active)
Or10v5 (GeneID 258938),5,0.642
Or10v5 (GeneID 258938),6,-0.513

Copied from the entries so far for reference:
target,siRNA no.,"TNF reporter z-score, mean"
Spi1 (GeneID 20375),4,-1.23
Spi1 (GeneID 20375),5,-2.38 (active)
Spi1 (GeneID 20375),6,-2.95 (active)
Sfpq (GeneID 71514),1,5.37 (active)
Sfpq (GeneID 71514),2,-2.78 (active)
Sfpq (GeneID 71514),3,-4.37 (active)
